Source: PubChem BioAssay AID2685 (National Center for Advancing Translational Sciences (NCATS), 2010)
This is one part of the list. These are further read-outs of the screen, such as a control signal, another cell line or another target. No call is given for them. Compounds called inactive in the main read-out are mostly missing here. Potencies come from curve fits of mixed quality, noted in brackets.

Assay: qHTS Assay for Lipid Storage Modulators in Drosophila S3 Cells;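 for cell number change: cells counted by Cell Tracker Red CMTPX staining in the red channel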
Conditions: BODIPY lipid droplet fluorescence, 18-24 h; for cell number change: measured here: cell count max response, cells fed with added oleic acid
In short: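 Drosophila S3 cells got compounds at several concentrations plus oleic acid (400 uM solution). Laser-scanning cytometry with 488 nm excitation read lipid droplets at 500-530 nm and cells at 575-640 nm. Percent activity was relative to 20 uM Triacsin C.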

[1] = measured here: lipid fluorescence (Fed channel) AC50, cells fed with added oleic acid
[2] = measured here: cell number channel AC50, cells fed with added oleic acid

Row | Compound | cell number change [%] | AC50 [1] | AC50 [2]
1 | Cc1oc(-c2nc3ccccc3n2C)cc1C(=O)c1ccccc1 | -28.8 | 13 µM [falling, single point] | –
2 | CCC1(C)Cc2c(sc3nc(SC)nc(N)c23)CO1 (stereo not given) | 68.3 | 23.1 µM [rising, single point] | 18.4 µM [rising, single point]
3 | COc1ccc(-c2cc(C(=O)Nc3cccc(C(C)=O)c3)no2)cc1 | -6.94 | 0.92 µM [rising, single point] | –
4 | Cc1ccc(N2CC(C(=O)N3CCC(C(=O)Nc4ccc(Br)cc4)CC3)CC2=O)cc1 (stereo not given) | -3.81 | – | –
5 | Nc1nc(-c2ccco2)c(-c2ccco2)s1 | -13.9 | – | –
6 | Cc1nc(NS(=O)(=O)c2ccccc2)sc1C(=O)N/N=C/c1ccccc1 | 16.1 | 1.3 µM [falling, partial curve] | 1.3 µM [falling, partial curve, poor fit]
7 | CN(CC(=O)NCc1ccccn1)S(=O)(=O)c1ccc(Cl)cc1 | 10.5 | – | –
8 | COC(=O)c1sccc1NC(=O)CSc1ccccc1NS(=O)(=O)c1ccccc1Cl | 25.6 | 3.66 µM [rising, full curve] | 0.291 µM [rising, full curve, poor fit]
9 | COc1cccc(C(=O)Nc2ccncc2)c1OC | -8.5 | 29.1 µM [falling, single point] | –
10 | O=C(N/N=C/c1ccc(Br)o1)c1cc([N+](=O)[O-])cc([N+](=O)[O-])c1 | 9.19 | 0.00461 µM [rising, full curve, poor fit] | 0.00461 µM [rising, full curve, poor fit]
11 | Nc1ccc(Cc2ccc(N)c(C(=O)O)c2)cc1C(=O)O | 35.6 | – | 0.0103 µM [rising, full curve, poor fit]
12 | CCC(=O)Nc1ccc(C(=O)OCC(=O)c2ccc(C)c([N+](=O)[O-])c2)cc1 | -34.7 | 29.1 µM [falling, single point] | 29.1 µM [falling, single point]
13 | CCN(CC)C(=O)C1CCCN(c2ncnc3c2cnn3-c2ccc(Cl)cc2)C1 (stereo not given) | -6.59 | – | –
14 | CC1CCc2cc(F)ccc2N1C(=O)c1cccs1 (stereo not given) | 4.65 | 6.51 µM [falling, single point] | –
15 | Cc1ccc(/C=C2/SC(=S)N(CC(=O)Nc3ncc(Cc4ccc(C)cc4)s3)C2=O)cc1 | -5.71 | 0.146 µM [falling, partial curve] | 0.651 µM [falling, full curve, poor fit]
16 | COc1ccc(-c2nnc(SCCc3ccccc3)n2N)cc1 | – | 6.51 µM [rising, single point] | 6.51 µM [rising, single point]
17 | Cc1cc(Nc2ncc(Cl)cc2Cl)n[nH]1 | 25.5 | 0.651 µM [rising, single point] | –
18 | CCOc1cccc2sc(NC(=O)CCS(=O)(=O)c3ccccc3)nc12 | -12.8 | 8.91 µM [falling, partial curve] | –
19 | Cc1ccc(S(=O)(=O)N2CCCCC2CCNC(=O)C(=O)NCc2ccncc2)cc1 (stereo not given) | -29.2 | 4.61 µM [falling, full curve, poor fit] | –

Row | Compound | cell number change [%] | AC50 [1] | AC50 [2]
20 | CCC(Sc1nc2ccncc2[nH]1)C(=O)Nc1ccc(C)c(Cl)c1 (stereo not given) | 11.7 | 29.1 µM [falling, single point] | –
21 | COc1cccc(N(CC(=O)NC2CC3CCC2C3)S(=O)(=O)c2ccccc2)c1 (stereo not given) | 2.86 | – | –
22 | Clc1cnc(Nc2cccnc2)c(Cl)c1 | – | 29.1 µM [rising, partial curve, poor fit] | –
23 | CCC/C(=N\NC(=O)C1CCCC1)c1ccccc1 | -10.9 | 29.1 µM [rising, single point] | –
24 | COc1ccc(N2CCN(C(=O)c3c(C)nn(-c4ccccc4)c3C)CC2)cc1 | – | 29.1 µM [rising, single point] | 0.116 µM [falling, full curve, poor fit]
25 | COCCCNC(=O)Cn1cc(C(=O)C2CC2)c2ccccc21 | 18.8 | 14.6 µM [rising, single point] | –
26 | Cc1ccc(N2C(=O)N3[C@H]4c5ccccc5OC[C@@H]4[C@@H](c4ccccc4)[C@@]3(C)C2=O)cc1 | 9.06 | 29.1 µM [rising, partial curve] | –
27 | C=CCN([C@@H](CC(C)C)C(=O)OC)S(=O)(=O)N(CC=C)[C@@H](CC(C)C)C(=O)OC | -37.2 | – | 16.4 µM [falling, single point]
28 | CC(C)(C)N=Cc1cc(-c2ccccc2)sc1O | -22.2 | 3.26 µM [falling, full curve, poor fit] | 3.66 µM [falling, full curve, poor fit]
29 | O=C(CCN1CCN(Cc2ccccc2)CC1)NNC(=O)Nc1cccc([N+](=O)[O-])c1 | -4.91 | 2.06 µM [rising, full curve, poor fit] | –
30 | COc1ccc(Nc2ccc(S(=O)(=O)N3CCCCC3)cc2[N+](=O)[O-])cc1Cl | -45.4 | 23.1 µM [falling, single point] | 29.1 µM [falling, single point]
31 | O=C(Nc1cccc2c1CCCC2)C1CCCN(S(=O)(=O)c2cccc3nonc23)C1 (stereo not given) | 69.1 | – | 23.1 µM [rising, partial curve, poor fit]
32 | Cc1oc(C(C)(C)C)cc1C(=O)Nc1cccc(/C=C\C(=O)O)c1 | 30.8 | – | 29.1 µM [rising, single point]
33 | Fc1ccccc1-c1nc(-c2ccccc2)no1 | -27.6 | 29.1 µM [falling, single point] | –
34 | COC(=O)c1ccccc1OCC(=O)NC1CCCCC1 | – | 3.66 µM [rising, partial curve] | –
35 | O=C(Nc1ccccc1N1CCCC1)C1CCN(C(=O)c2ccc(Cl)cc2)CC1 | 50.5 | – | 1.3 µM [rising, full curve]
36 | Cc1ccc(NC(=O)[C@H](Cc2c[nH]c3ccccc23)NC(=O)[C@@H]2Cc3ccccc3CN2)c(C)c1 | 13.4 | – | –
37 | CCOc1ccc(NC(=S)Nc2ccccc2C2CC2)cc1 | -31.4 | 32.6 µM [falling, single point] | 18.4 µM [falling, single point]

As a working copy, some entries already given.
Row | Compound | cell number change [%] | AC50 [1] | AC50 [2]
30 | COc1ccc(Nc2ccc(S(=O)(=O)N3CCCCC3)cc2[N+](=O)[O-])cc1Cl | -45.4 | 23.1 µM [falling, single point] | 29.1 µM [falling, single point]
31 | O=C(Nc1cccc2c1CCCC2)C1CCCN(S(=O)(=O)c2cccc3nonc23)C1 (stereo not given) | 69.1 | – | 23.1 µM [rising, partial curve, poor fit]
32 | Cc1oc(C(C)(C)C)cc1C(=O)Nc1cccc(/C=C\C(=O)O)c1 | 30.8 | – | 29.1 µM [rising, single point]
33 | Fc1ccccc1-c1nc(-c2ccccc2)no1 | -27.6 | 29.1 µM [falling, single point] | –
34 | COC(=O)c1ccccc1OCC(=O)NC1CCCCC1 | – | 3.66 µM [rising, partial curve] | –
35 | O=C(Nc1ccccc1N1CCCC1)C1CCN(C(=O)c2ccc(Cl)cc2)CC1 | 50.5 | – | 1.3 µM [rising, full curve]
36 | Cc1ccc(NC(=O)[C@H](Cc2c[nH]c3ccccc23)NC(=O)[C@@H]2Cc3ccccc3CN2)c(C)c1 | 13.4 | – | –
